Columns and labels:
[1] = tested on: KLK3 mRNA (AR target gene) in C4-2 cells; experiment: Inhibition of R1881 activation of KLK3 mRNA in C4-2 cells; format: cell-based; conditions: hormone depleted 96 h, R1881 1 nM, compound 1-10 μM, 48 h, FIG. 3A
Procedure: (§1) Cell Culture and Reagents. LNCaP and 22Rv1 cell lines were from American Type Culture Collection (Manassas, Va.). C4-2 cells were kindly provided by Dr. Edwin Sanchez (University of Toledo). […] R1881 was kindly provided by Dr. Stephan Patrick (Karmanos Cancer Institute). All experiments were conducted using phenol-red free growth media.
(§2) RNA isolation, Reverse Transcription, and Real Time PCR. Total RNA was isolated from cells using the RNeasy Mini Kit (Qiagen). Reverse transcription PCR was then performed using 500 ng of total RNA with random primers and using the high-capacity complementary DNA Archive kit (Applied Biosystems). The complementary DNA from this reaction was measured using quantitative real time PCR using the StepONE Plus Real Time PCR system (Life Technologies Corporation, Carlsbad, Calif.). All reactions were performed in triplicate and normalized to glyceraldehyde-3-phosphate-dehydrogenase values in the same samples.

[2] = tested on: TMPRSS2 mRNA (AR target gene) in C4-2 cells; experiment: Inhibition of R1881 activation of TMPRSS2 mRNA in C4-2 cells; format: cell-based; conditions: hormone depleted 96 h, R1881 1 nM, compound 1-10 μM, 48 h, FIG. 3B
Procedure: as §1, §2

O=C(CCCCCCC(=O)Nc1ccccc1)NO [SAHA, suberanilohydroxamic acid, reference compound]
inhibition of activation of KLK3 by R1881 [1]: partially inhibited
inhibition of activation of TMPRSS2 by R1881 [2]: partially inhibited

Source: patent US9963433B2, “Anticancer drugs including the chemical structures of an androgen receptor ligand and a histone deacetylase inhibitor” (Wayne State University, priority 2016, dated 2018)
